According to patent US6617430:
Results are given in words; binding and its absence hold for the method and conditions named. For part of these data: In cells and extracts the contact can be indirect. Some results given as binding are weak or reduced against the parent protein; the word gives no strength. For part of these data: Where a sequence is shown, tags or fusion partners need not be part of it.

Chains of the proteins cited; added tags and fusions are not shown. Lines headed by an entry give the natural chain unless they say otherwise; changes in a name come on top.
UniProt P04386: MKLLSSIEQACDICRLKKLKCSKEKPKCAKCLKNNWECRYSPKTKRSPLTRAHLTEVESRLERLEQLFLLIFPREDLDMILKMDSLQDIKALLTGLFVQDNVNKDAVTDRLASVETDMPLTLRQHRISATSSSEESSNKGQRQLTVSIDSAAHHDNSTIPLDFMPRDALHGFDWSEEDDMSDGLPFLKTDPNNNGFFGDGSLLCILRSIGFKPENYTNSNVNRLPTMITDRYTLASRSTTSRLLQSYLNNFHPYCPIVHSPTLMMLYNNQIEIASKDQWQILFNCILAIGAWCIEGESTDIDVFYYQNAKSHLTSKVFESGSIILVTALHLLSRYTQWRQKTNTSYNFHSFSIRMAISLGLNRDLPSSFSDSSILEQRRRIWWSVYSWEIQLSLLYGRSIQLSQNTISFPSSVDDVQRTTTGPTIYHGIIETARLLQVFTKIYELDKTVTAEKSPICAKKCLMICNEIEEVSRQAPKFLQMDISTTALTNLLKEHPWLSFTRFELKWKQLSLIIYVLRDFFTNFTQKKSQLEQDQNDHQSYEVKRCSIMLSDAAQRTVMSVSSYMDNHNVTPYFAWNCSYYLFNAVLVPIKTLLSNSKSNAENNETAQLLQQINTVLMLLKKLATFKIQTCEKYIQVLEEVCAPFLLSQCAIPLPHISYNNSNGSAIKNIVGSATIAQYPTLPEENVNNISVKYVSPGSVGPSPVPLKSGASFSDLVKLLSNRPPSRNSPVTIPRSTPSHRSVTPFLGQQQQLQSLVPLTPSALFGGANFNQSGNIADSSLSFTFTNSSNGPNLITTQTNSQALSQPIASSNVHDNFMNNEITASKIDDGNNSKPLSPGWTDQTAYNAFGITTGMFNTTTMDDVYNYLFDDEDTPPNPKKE
UniProt Q99700: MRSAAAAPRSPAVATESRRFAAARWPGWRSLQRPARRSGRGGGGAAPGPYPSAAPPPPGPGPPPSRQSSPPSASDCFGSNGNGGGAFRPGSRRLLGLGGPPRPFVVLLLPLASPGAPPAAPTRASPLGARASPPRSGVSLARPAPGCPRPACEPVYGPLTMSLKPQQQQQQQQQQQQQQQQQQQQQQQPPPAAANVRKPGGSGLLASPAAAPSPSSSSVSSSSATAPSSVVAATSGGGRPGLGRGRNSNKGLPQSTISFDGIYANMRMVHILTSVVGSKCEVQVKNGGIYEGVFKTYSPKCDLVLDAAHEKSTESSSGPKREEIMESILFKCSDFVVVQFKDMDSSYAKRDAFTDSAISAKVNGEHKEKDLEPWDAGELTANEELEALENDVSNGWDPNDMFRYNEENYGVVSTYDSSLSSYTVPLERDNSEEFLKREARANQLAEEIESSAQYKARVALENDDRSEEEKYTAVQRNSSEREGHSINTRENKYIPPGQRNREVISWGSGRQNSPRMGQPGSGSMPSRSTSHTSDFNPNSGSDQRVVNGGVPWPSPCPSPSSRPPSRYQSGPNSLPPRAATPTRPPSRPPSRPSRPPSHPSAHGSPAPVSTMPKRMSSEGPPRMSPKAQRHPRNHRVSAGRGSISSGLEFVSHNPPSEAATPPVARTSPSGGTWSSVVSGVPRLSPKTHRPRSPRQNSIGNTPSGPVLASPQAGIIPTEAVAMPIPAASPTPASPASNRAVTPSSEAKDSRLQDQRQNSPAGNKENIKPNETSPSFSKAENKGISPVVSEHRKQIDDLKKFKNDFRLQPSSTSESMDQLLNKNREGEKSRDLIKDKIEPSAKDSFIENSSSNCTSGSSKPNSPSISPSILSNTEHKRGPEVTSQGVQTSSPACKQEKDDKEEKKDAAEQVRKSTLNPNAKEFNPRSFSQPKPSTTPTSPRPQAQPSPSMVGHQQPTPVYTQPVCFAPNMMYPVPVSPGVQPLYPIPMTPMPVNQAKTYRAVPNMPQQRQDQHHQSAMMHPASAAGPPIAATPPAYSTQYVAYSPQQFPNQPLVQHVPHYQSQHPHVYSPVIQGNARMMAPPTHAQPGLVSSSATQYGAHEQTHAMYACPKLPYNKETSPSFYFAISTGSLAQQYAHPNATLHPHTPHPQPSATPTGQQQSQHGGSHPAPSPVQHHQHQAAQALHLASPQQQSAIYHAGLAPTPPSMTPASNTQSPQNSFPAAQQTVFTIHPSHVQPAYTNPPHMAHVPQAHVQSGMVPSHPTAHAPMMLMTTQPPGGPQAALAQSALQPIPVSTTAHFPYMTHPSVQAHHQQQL

B1: ataxin-2 binding protein (A2BP), GAL4 activation domain fusion from the pGAD10 human adult brain cDNA library clone (protein, not shown: large carriers)
chain: MNCEREQLRGNQEAAAAPDTMAQPYASAQFAPPQNGIPAEYTAPHPHPAPEYTGQTTVPEHTLNLYPPAQTHSEQSPADTSAQTVSGTATQTDDAAPTDGQPQTQPSENTENKSQPKRLHVSNIPFRFRDPDLRQMFGQFGKILDVEIIFNERGSKGFGFVTFENSADADRAREKLHGTVVEGRKIEVNNATARVMTNKKTVNPYTNGWKLNPVVGAVYSPEFYAGTVLLCQANQEGSSMYSAPSSLVYTSAMPGFPYPAATAAAAYRGAHLRGRGRTVYNTFRAAAPPPPIPAYGGVVYPGWILWCRHLWWLCCIPLRPAYPCHCRCLQ
B2: endogenous ataxin-2 binding protein (A2BP) of HTB10 cells (protein)
chain: B1 chain

Columns and labels:
[1] = target: C-terminal region of ataxin-2 protein (amino acids 811-1312) fused to the binding domain of GAL4 (human) (UniProt P04386+Q99700); test: yeast two-hybrid screen, beta-galactosidase filter assay
[2] = target: full-length normal ataxin-2 containing 22 poly-glutamine residues, GAL4 binding domain fusion (human) (UniProt P04386+Q99700); test: yeast two-hybrid, beta-gal filter assay
[3] = target: endogenous ataxin-2 of HTB10 cells (human) (UniProt Q99700); test: co-immunoprecipitation from HTB10 cell lysate with anti-A2BP antibody 1734-2, Western blot with anti-SCA2B

Row | Binder | binding [1] | binding [2] | binding [3]
1 | B1 | binds | binds | 
2 | B2 |  |  | binds
